Consider one substance from paper PMC9676403.

Sequences of proteins named here, by UniProt entry; tags and fusion partners are left off. A change or cut given only in a name is not applied to a line headed by its entry. Residues count along the entry.
UniProt P13674, residues 18-534: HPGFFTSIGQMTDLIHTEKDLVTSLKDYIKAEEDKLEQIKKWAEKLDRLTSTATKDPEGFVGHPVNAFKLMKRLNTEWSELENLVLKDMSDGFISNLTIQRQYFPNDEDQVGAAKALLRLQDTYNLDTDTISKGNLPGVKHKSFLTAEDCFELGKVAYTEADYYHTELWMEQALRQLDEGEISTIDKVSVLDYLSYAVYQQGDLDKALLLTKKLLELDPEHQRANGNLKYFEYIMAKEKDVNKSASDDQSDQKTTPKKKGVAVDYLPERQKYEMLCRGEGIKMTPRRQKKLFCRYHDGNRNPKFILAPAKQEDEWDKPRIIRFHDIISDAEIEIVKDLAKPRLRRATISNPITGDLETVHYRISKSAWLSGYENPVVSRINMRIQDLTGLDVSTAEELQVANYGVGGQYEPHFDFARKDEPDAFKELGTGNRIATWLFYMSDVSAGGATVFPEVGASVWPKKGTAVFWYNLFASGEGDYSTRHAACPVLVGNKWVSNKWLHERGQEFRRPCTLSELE
UniProt P07237, residues 18-508: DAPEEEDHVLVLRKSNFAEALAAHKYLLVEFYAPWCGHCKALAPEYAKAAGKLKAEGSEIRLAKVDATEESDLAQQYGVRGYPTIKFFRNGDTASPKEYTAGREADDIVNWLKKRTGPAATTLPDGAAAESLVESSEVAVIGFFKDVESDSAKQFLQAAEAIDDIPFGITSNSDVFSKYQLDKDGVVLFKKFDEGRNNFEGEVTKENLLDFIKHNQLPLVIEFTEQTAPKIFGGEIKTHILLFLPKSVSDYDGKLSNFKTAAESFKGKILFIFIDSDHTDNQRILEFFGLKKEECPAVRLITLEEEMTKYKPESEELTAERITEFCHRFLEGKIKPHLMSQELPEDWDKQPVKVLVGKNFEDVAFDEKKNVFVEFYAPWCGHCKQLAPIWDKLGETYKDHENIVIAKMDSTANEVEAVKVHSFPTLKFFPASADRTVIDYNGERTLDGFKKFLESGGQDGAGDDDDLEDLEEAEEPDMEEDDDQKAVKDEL

These are yes or no findings as the source states them, for the method shown. Some results given as binding are weak or reduced against the parent protein; the word gives no strength.

The target in this test is α-subunit of mature human C-P4H-I (human) (UniProt P13674). Nature of the test: co-purification; His6-tagged α-subunit coexpressed with untagged β/PDI in E. coli (CyDisCo); Talon IMAC from the lysate, HiTrap Q, Superdex 200, 4 °C, Tris pH 7.8; subunits found in the purified sample by SDS-PAGE and MS.

As to “protein disulfide isomerase, the β-subunit of C-P4H (from UniProt P07237 18-508) (enzyme)”, the binding result is recorded as “binds”.
